Compound in the experiment: Nc1ncnc2c1ncn2[C@@H]1O[C@H](COP(=O)(O)OP(=O)(O)OP(=O)(O)O)[C@@H](O)[C@H]1O [adenosine triphosphate]
Kind of experiment: NP40-soluble protein abundance relative to vehicle (solubility fold change) (ratio); higher = more soluble protein in presence of ATP. An outline of the steps:
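Values are fold changes against the detergent-processed vehicle, based on vsn-normalised intensities. Jurkat crude lysate was treated at eight concentrations from 0.1 to 10 mM (10 min at room temperature, then 3 min at 37 °C), solubilised with 0.8% NP40 and benzonase, ultracentrifuged and analysed by TMT-labelled LC-MS/MS over three independent experiments.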

The chains behind the UniProt entries cited, without tags or fusion partners. Where a name states a change or a piece, a line headed by the entry shows the natural chain unless it says otherwise.
UniProt A6NED2: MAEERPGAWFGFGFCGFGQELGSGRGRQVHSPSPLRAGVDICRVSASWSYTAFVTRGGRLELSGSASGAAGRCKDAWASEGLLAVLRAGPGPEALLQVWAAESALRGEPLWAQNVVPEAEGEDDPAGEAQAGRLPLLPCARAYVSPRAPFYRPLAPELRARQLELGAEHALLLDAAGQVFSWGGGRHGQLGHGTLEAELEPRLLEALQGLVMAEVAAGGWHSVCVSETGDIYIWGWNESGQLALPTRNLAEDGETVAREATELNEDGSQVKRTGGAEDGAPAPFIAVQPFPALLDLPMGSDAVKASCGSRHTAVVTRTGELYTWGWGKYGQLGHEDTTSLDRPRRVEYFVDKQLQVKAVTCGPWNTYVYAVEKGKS
UniProt P19484: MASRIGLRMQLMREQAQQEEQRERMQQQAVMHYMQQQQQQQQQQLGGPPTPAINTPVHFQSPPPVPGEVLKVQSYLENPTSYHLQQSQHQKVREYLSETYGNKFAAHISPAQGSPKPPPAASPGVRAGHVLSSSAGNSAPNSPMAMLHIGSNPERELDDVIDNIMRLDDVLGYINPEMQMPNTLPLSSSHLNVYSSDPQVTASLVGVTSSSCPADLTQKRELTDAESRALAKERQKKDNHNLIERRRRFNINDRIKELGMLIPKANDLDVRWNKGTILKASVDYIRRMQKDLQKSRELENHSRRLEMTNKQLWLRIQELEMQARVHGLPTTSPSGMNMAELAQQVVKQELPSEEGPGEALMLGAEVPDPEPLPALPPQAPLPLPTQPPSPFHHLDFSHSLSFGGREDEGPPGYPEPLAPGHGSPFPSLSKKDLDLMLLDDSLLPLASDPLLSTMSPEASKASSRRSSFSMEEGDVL
UniProt P61086: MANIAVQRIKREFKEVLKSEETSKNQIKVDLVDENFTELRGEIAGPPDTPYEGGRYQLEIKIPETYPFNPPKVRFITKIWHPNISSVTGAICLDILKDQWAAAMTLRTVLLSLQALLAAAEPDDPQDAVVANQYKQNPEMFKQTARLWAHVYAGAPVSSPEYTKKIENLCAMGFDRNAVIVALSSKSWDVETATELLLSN
UniProt Q8IYT2: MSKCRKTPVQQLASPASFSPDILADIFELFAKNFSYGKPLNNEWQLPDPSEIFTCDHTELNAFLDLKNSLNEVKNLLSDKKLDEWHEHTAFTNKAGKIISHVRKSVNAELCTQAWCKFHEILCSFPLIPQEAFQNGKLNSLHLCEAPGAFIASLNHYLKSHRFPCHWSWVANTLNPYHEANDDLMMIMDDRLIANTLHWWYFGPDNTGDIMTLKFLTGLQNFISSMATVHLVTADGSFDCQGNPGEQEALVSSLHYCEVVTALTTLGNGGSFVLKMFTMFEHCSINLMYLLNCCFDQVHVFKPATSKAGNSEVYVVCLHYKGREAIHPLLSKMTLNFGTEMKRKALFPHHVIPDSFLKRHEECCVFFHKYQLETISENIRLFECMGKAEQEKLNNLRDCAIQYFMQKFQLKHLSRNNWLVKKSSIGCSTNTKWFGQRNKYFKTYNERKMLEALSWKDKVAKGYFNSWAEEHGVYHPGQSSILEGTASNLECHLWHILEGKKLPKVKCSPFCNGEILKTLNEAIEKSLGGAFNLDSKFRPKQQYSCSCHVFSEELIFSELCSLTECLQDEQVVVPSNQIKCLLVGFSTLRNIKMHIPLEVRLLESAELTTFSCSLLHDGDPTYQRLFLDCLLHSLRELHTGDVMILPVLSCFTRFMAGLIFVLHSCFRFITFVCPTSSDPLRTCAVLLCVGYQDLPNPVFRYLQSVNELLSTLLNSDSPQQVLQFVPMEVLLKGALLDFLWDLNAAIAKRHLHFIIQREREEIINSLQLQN
UniProt P63165, whole entry: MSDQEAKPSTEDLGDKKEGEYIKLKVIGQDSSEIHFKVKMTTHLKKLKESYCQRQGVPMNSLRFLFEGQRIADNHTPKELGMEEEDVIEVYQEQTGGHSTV
UniProt Q8WVV9: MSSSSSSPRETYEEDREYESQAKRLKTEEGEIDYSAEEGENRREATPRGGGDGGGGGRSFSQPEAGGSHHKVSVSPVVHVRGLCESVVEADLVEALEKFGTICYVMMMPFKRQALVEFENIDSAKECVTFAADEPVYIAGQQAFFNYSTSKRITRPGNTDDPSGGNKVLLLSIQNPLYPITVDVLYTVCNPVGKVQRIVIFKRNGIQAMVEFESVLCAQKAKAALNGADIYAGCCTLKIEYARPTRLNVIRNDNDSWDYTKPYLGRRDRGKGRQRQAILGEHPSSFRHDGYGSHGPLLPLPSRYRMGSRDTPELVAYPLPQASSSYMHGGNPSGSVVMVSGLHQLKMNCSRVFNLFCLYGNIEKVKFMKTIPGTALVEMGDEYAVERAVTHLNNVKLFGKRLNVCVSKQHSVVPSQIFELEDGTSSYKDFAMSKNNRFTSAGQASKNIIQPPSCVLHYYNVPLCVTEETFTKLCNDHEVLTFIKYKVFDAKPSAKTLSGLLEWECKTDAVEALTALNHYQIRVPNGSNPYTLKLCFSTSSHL
UniProt Q9H9J4: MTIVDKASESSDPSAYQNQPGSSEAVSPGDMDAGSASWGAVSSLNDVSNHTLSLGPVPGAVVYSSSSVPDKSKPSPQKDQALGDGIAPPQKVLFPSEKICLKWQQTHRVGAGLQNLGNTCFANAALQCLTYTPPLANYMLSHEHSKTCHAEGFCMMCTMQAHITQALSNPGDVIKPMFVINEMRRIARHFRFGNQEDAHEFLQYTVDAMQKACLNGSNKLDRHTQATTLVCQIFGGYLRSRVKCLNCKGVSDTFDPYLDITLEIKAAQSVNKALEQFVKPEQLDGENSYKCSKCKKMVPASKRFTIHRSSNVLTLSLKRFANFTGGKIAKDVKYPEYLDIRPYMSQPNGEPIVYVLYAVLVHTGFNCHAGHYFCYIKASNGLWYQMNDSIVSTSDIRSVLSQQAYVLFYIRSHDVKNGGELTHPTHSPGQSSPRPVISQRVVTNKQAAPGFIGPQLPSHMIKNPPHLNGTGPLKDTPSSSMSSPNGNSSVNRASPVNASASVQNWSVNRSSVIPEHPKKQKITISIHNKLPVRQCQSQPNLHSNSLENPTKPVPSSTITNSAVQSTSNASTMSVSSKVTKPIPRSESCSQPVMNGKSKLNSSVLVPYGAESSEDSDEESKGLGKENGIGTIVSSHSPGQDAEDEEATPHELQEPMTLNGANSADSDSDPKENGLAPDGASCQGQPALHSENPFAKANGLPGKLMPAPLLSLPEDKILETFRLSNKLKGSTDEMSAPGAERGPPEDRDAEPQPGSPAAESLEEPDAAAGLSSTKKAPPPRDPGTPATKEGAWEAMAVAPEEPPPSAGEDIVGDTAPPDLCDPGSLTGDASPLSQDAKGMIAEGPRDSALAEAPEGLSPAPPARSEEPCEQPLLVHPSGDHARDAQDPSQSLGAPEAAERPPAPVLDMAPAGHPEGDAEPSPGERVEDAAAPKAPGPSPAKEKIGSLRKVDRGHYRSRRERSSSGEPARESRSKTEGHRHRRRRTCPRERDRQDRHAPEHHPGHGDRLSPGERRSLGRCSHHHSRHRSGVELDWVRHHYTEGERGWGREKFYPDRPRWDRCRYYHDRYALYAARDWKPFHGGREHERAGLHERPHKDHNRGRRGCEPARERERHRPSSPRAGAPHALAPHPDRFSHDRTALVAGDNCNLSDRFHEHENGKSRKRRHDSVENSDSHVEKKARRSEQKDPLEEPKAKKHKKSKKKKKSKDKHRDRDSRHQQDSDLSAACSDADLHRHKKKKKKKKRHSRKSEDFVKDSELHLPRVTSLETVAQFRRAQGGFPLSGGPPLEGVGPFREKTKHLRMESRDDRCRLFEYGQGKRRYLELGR
UniProt Q14919: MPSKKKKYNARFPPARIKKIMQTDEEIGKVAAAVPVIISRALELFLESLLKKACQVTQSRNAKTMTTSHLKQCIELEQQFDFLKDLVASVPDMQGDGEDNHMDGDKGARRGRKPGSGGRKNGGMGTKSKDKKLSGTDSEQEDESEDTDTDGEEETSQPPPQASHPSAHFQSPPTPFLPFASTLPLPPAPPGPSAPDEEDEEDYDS
UniProt P35222, whole entry: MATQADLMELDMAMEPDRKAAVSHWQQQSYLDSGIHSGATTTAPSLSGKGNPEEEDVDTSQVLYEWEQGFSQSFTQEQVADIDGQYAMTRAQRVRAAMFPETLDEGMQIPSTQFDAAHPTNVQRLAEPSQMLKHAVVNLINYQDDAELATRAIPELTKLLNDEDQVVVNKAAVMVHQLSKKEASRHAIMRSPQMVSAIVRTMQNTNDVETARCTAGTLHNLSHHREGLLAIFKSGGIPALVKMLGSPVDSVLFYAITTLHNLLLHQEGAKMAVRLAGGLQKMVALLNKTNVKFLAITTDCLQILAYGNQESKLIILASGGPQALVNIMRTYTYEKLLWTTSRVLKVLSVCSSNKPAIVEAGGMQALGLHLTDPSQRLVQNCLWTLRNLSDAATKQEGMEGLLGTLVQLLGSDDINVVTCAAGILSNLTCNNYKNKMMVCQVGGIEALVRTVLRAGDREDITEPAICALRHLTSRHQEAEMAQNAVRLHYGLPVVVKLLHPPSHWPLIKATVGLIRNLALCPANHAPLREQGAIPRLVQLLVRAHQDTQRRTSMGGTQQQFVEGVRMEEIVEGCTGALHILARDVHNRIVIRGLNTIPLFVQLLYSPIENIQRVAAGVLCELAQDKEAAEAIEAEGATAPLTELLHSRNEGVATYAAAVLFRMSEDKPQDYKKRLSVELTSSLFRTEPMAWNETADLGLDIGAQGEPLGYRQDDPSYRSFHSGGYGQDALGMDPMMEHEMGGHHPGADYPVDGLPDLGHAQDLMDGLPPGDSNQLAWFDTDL
UniProt A0JNW5: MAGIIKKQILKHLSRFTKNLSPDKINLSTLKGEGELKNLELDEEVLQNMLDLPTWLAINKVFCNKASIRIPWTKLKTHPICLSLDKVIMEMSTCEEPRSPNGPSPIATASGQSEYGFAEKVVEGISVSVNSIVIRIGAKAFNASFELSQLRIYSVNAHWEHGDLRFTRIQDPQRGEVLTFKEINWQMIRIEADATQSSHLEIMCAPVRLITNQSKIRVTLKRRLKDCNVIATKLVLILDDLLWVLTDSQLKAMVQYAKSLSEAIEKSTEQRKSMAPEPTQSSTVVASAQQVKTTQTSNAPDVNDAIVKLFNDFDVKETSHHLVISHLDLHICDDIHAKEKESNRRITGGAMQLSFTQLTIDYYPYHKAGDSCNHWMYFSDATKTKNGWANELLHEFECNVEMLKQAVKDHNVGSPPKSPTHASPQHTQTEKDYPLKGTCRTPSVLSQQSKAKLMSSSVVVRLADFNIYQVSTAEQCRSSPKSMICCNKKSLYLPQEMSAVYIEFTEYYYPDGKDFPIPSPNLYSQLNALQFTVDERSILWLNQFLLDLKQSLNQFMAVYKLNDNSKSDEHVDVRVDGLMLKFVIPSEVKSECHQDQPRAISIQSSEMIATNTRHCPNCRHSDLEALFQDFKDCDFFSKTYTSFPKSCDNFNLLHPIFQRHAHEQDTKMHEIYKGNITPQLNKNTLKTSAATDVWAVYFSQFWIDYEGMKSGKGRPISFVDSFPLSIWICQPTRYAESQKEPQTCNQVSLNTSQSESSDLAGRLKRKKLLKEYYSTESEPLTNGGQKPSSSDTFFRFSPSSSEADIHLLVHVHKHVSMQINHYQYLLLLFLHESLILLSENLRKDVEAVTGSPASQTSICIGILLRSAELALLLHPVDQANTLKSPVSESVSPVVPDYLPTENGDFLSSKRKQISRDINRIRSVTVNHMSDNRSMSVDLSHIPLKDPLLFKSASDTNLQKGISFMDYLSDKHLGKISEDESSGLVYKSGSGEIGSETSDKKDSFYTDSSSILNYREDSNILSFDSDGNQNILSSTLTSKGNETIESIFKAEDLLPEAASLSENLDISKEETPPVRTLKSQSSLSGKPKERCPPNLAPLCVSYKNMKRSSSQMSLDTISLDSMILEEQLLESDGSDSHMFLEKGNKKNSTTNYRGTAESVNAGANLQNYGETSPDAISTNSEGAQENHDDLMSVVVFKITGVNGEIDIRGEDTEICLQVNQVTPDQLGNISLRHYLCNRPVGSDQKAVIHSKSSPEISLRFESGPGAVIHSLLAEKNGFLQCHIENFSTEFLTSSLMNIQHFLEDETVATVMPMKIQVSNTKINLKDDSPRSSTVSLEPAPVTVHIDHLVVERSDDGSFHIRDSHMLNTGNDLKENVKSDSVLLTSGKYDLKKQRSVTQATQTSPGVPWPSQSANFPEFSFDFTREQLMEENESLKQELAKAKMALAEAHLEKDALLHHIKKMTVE

± gives the standard deviation of the averaged measurements. Only a part is listed here, and it is no random draw.

In the case of RCCD1 (UniProt A6NED2), the NP40-soluble protein abundance came to 0.996 ± 0.022 (concentration: 1mM); 1.02 ± 0.011 (concentration: 2mM); 1.04 ± 0.034 (concentration: 4mM); 1.07 ± 0.063 (concentration: 6mM); 0.9551 ± 0.002 (concentration: 8mM); 1.01 ± 0.051 (concentration: 10mM).
On to “B0QYS6 and related entries (UniProt P19484)”, for which the NP40-soluble protein abundance (concentration: 1mM) came to 1.04 ± 0.13; the NP40-soluble protein abundance (concentration: 2mM) came to 0.884 ± 0.041; the NP40-soluble protein abundance (concentration: 4mM) is 1.06 ± 0.012; the NP40-soluble protein abundance (concentration: 6mM) stood at 0.957 ± 0.017; the NP40-soluble protein abundance (concentration: 8mM) worked out at 0.913 ± 0.12; the NP40-soluble protein abundance (concentration: 10mM) came out at 0.936 ± 0.1.
Turning to “D6RDM7 and related entries (UniProt P61086)”, the NP40-soluble protein abundance came to 0.946 ± 0.087 (concentration: 1mM); 0.956 ± 0.061 (concentration: 2mM); 0.923 ± 0.071 (concentration: 4mM); 0.941 ± 0.091 (concentration: 6mM); 0.916 ± 0.074 (concentration: 8mM); 0.927 ± 0.031 (concentration: 10mM).
With A0A0U1RRB3|Q8IYT2 (UniProt Q8IYT2), the NP40-soluble protein abundance amounted to 0.988 ± 0.087 (concentration: 1mM); 1.02 ± 0.09 (concentration: 2mM); 0.992 ± 0.077 (concentration: 4mM); 0.95 ± 0.092 (concentration: 6mM); 1.01 ± 0.081 (concentration: 8mM); 1.02 ± 0.049 (concentration: 10mM).
Take “B8ZZN6 and related entries (UniProt P63165)”: the NP40-soluble protein abundance (concentration: 1mM) turned out to be 0.882 ± 0.088; the NP40-soluble protein abundance (concentration: 2mM) is 0.866 ± 0.094; the NP40-soluble protein abundance (concentration: 4mM) worked out at 0.842 ± 0.062; the NP40-soluble protein abundance (concentration: 6mM) was found to be 0.923 ± 0.1; the NP40-soluble protein abundance (concentration: 8mM) came out at 0.871 ± 0.01; the NP40-soluble protein abundance (concentration: 10mM) came to 0.806 ± 0.091.
“C9IYN3 and related entries (UniProt Q8WVV9+D6W592+C9IYN3)”: the NP40-soluble protein abundance by setting is: (concentration: 1mM) 1.06 ± 0.07; (concentration: 2mM) 1.03 ± 0.067; (concentration: 4mM) 1.03 ± 0.079; (concentration: 6mM) 1.02 ± 0.11; (concentration: 8mM) 1.06 ± 0.059; (concentration: 10mM) 1.03 ± 0.058.
Turning to “C9JPC9 and related entries (UniProt Q9H9J4)”, the NP40-soluble protein abundance was 0.967 ± 0.091 (concentration: 1mM); 0.951 ± 0.12 (concentration: 2mM); 1.03 ± 0.11 (concentration: 4mM); 1.07 ± 0.19 (concentration: 6mM); 1.01 ± 0.09 (concentration: 8mM); 1.03 ± 0.13 (concentration: 10mM).
Turning to “C9JCC6 and related entries (UniProt Q14919)”, the NP40-soluble protein abundance is, setting by setting: (concentration: 1mM) 0.915 ± 0.25; (concentration: 2mM) 0.781 ± 0.12; (concentration: 4mM) 0.737 ± 0.17; (concentration: 6mM) 0.672 ± 0.14; (concentration: 8mM) 0.725 ± 0.074; (concentration: 10mM) 0.579 ± 0.23.
For “B4DGU4 and related entries (UniProt P35222)”, the NP40-soluble protein abundance runs as follows: (concentration: 1mM) 1.01 ± 0.079; (concentration: 2mM) 1.02 ± 0.055; (concentration: 4mM) 1.03 ± 0.039; (concentration: 6mM) 0.964 ± 0.11; (concentration: 8mM) 0.978 ± 0.033; (concentration: 10mM) 1.01 ± 0.062.
Regarding UniProt A0JNW5 and related entries, the NP40-soluble protein abundance amounted to 1.04 ± 0.09 (concentration: 1mM); 1.06 ± 0.11 (concentration: 2mM); 1.08 ± 0.11 (concentration: 4mM); 0.975 ± 0.08 (concentration: 6mM); 1.02 ± 0.099 (concentration: 8mM); 1.02 ± 0.09 (concentration: 10mM).

(Values after the supplement of paper PMC6411743.)
